Biological target: T1, lysine oxidase from Pichia pastoris (Komagataella pastoris, UniProt Q96X16)
T1 construct: Purification of the Lysine Oxidase from Pichia pastoris; endogenous in cells; host or cells: Pichia pastoris (enzyme purified from the yeast itself)
T1 sequence (Q96X16 19-787): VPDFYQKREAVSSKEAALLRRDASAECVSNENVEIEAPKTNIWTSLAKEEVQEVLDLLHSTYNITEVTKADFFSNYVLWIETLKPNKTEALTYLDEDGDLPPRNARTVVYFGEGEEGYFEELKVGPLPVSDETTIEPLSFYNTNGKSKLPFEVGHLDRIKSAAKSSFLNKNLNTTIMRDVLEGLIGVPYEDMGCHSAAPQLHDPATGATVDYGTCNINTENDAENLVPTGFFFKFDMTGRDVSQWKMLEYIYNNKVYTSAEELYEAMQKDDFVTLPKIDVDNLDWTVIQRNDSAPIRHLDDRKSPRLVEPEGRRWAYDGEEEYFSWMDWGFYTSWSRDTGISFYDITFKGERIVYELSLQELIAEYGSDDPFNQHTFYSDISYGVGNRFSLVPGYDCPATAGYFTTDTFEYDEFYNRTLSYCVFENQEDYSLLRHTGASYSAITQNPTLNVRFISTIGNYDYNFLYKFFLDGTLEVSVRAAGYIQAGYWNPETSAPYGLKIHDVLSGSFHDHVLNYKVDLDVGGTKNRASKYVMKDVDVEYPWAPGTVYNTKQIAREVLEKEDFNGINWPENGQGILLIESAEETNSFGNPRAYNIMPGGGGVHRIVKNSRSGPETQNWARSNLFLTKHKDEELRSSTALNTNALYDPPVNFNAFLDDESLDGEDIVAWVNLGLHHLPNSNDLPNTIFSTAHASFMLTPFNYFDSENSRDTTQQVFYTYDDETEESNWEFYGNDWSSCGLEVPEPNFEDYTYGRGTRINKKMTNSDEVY
Assay: Assays with various substrates: conversion in the presence of lysine oxidase (peroxidase/4-aminoantipyrine/phenol dye, absorption at 500 nm)
Type: biochemical
Conditions: substrate 18.75-1200 μmol/l in water, no reducing agent, L-lysine = 100
Source text: The substrates employed were L-lysine monohydrochloride (for biochemical purposes, 99% from Merck), ethanolamine from BASF AG, glycine ethyl ester, 1,8-diaminooctane from Aldrich, n-butylamine from BASF AG, 1,4-diaminobutane from BASF AG, ethylenediamine from BASF AG, spermine from Aldrich, 3-aminomethylpyridine from Aldrich, benzylamine from Aldrich, L-(+)-ornithine hydrochloride (99% from Aldrich) and 1,6-diaminohexane from BASF AG.
Measurement series in each case with a concentration of 1 200, 600, 300, 150, 75, 37.5 and 18.75 μmol of (di)amine per 1 l of water were carried out in a microtiter plate. 2 measurement series were carried out in each case; one with enzyme and one without enzyme as reference.
100 μl of each of the diluted solutions were taken. To this solution were added 25 μl of lysine oxidase and 40 μl of 35 millimolar phenol solution in 200 millimolar potassium phosphate/potassium diphosphate solution with a pH of 7.5, 40 μl of a 2 millimolar aqueous 4-aminoantipyrine solution and 40 μl of a solution of 0.35 mg of peroxidase (horseradish from Sigma) in 1 ml of water.
In the reference measurement series, the 25 μl of lysine oxidase were replaced by 25 μl of water. A violet dye was formed by the […] produced on conversion of the substrates and its absorption in the UV at 500 nm was measured (T. Uwajima, O. Terada, Methods in Enzymology 1982, 89, 243 ff.). […]

Row | SMILES | Relative conversion rate compared with L-lysine in %
1 | NCCC[C@H](N)C(=O)O [L-Ornithine] | 90%
2 | NCCC[C@@H](N)C(=O)O [D-Ornithine] | 90%

— patent publication US7229803B2, “Reaction of (di)amines in the presence of a lysine oxidase and of a reducing agent” (BASF Aktiengesellschaft, priority 2001, dated 2007)
